The results in this text go back to paper PMC7116222.

Results are given in words; binding and its absence hold for the method and conditions named. In cells and extracts the contact can be indirect. Some entries that bind do so weakly or less than the wild type.

In the test the target is T1, SLUG (human (endogenous in MCF7)) (UniProt O43623).
T1 sequence: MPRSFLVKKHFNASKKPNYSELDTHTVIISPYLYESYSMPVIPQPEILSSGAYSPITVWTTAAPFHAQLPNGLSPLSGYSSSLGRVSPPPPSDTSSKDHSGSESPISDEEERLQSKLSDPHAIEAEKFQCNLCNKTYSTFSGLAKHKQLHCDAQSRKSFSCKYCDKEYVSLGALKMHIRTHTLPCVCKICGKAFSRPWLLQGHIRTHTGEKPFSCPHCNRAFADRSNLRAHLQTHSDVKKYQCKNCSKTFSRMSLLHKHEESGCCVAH
Description: co-IP; endogenous proteins in lysate of hypoxia-treated MCF7 cells; IP with anti-SLUG or anti-RBFOX2 antibody, normal rabbit or mouse IgG as control, Protein-G Dynabeads, 4°C; lysis and wash buffer 10 mM Tris pH 7.5, 150 mM NaCl, 0.5 mM EDTA, 0.5% NP-40; immunoblot with anti-SLUG and anti-RBFOX2. On the technique in general: A western blot detects proteins with antibodies after separation by electrophoresis.

B1: RBFOX2 (protein, UniProt O43251 1-390)
chain: MQNEPLTPGYHGFPARDSQGNQEPTTTPDAMVQPFTTIPFPPPPQNGIPTEYGVPHTQDYAGQTGEHNLTLYGSTQAHGEQSSNSPSTQNGSLTTEGGAQTDGQQSQTQSSENSESKSTPKRLHVSNIPFRFRDPDLRQMFGQFGKILDVEIIFNERGSKGFGFVTFENSADADRAREKLHGTVVEGRKIEVNNATARVMTNKKMVTPYANGWKLSPVVGAVYGPELYAASSFQADVSLGNDAAVPLSGRGGINTYIPLISLPLVPGFPYPTAATTAAAFRGAHLRGRGRTVYGAVRAVPPTAIPAYPGVVYQDGFYGADLYGGYAAYRYAQPATATAATAAAAAAAAYSDGYGRVYTADPYHALAPAASYGVGAVASLYRGGYSRFAPY
For the molecule B1, the binding result is given as “binds”.
